Here are results for 6 molecules from article PMC8257933.

No constants are given. Whether binding was seen depends on the method and setting. For some of these results: In cells and extracts the contact can be indirect. Some entries that bind do so weakly or less than the wild type. Sequences can lack the tags named with a protein.

For assay [1], the target named is T1, NTCP-G60LXXXA64L-GFP (TMD2 mutant), on HEK293 cells (human) (UniProt Q14973).
T1 sequence: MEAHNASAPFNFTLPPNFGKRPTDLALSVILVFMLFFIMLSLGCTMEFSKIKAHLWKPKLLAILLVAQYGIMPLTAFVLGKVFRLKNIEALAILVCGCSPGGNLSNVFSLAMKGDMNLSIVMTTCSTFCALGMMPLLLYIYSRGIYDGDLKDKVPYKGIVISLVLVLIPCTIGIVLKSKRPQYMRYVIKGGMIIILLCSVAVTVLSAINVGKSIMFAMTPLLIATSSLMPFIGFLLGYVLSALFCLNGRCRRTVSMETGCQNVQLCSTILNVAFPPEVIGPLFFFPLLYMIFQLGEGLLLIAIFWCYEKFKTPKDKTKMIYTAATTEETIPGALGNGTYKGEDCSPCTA
The assay is described as follows: binding of a fluorescent peptide to transfected cells (fluorescence microscopy); HEK293 cells expressing NTCP-GFP incubated with 50 nM preS1-AF568 in DMEM for 20 min at 37°C, washed with PBS; overlay of green and red fluorescence; only the binder purified.

Assay [2] has as its target T2, NTCP-GFP fusion protein, wild type, on HEK293 cells (human) (UniProt Q14973).
T2 sequence: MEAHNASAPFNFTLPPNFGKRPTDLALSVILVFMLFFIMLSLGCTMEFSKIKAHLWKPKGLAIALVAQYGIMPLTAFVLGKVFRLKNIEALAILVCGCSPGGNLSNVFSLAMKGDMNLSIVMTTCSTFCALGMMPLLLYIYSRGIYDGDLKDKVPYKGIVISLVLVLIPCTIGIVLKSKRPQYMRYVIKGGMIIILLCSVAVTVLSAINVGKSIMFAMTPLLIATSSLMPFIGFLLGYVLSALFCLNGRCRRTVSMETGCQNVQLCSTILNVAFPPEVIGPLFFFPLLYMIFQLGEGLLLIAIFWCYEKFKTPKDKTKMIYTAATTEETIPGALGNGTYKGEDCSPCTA
The description is as above.

Assay [3] deals with T3, Na+/taurocholate co-transporting polypeptide (NTCP), wild type, MYTH bait and prey fusions (human) (UniProt Q14973).
T3 sequence: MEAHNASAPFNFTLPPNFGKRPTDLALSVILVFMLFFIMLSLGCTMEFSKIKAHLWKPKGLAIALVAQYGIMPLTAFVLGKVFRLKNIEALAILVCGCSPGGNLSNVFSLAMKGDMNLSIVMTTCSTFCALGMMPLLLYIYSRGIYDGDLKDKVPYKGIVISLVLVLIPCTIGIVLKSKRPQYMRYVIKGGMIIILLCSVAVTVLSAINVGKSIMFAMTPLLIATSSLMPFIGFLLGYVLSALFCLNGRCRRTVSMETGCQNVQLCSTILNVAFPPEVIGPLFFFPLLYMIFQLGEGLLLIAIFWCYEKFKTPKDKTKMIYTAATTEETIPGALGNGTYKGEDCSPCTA
Briefly: two-hybrid; split-ubiquitin membrane yeast two-hybrid (MYTH), strain NMY51; NTCP-Cub-LexA-VP16 bait with NTCP-HA-NubG preys; growth (dripping) and colony counts on SD-AHLW plates with 25 mM 3-AT, 30°C, 5 days.

For assay [4], the target named is T4, NTCP-FLAG G60LXXXA64L (TMD2) mutant (human) (UniProt Q14973).
T4 sequence: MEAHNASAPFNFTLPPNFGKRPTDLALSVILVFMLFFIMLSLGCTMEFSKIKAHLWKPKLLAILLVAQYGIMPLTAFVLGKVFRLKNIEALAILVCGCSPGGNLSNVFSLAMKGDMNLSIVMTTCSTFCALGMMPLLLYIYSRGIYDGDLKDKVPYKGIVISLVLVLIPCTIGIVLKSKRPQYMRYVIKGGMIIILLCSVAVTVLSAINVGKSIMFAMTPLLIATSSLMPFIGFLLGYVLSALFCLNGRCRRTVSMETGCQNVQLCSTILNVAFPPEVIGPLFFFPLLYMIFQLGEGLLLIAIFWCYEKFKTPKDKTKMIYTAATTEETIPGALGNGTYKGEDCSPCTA
Briefly: co-IP; HEK293 cells co-transfected with NTCP-FLAG and NTCP-V5-His constructs; lysis in 20 mM Tris-HCl, 135 mM NaCl, 10% glycerol, 1% Nonidet P40; anti-FLAG magnetic agarose overnight at 4°C; western blot with anti-V5. On the technique in general: A western blot detects proteins with antibodies after separation by electrophoresis.

Assay [5] has as its target NTCP wild type, NTCP-FLAG and NTCP-V5-His expressed in HEK293 cells (human) (UniProt Q14973). The assay is described as above.
Assay [6] has as its target T5, NTCP-FLAG G60LXXXA64L/G233LXXXG237L (TMD2/7) double mutant (human) (UniProt Q14973).
T5 sequence: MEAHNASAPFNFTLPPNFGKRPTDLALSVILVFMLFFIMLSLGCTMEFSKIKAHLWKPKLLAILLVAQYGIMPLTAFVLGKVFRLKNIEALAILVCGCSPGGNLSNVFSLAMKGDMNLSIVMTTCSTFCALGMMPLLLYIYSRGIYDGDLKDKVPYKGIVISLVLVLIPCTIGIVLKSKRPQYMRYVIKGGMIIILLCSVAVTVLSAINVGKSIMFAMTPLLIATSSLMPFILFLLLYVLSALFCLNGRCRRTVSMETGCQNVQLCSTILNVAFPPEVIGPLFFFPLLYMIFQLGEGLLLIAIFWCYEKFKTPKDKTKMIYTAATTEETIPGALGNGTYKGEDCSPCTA
The assay is described as above.

Assay [7] has as its target T6, NTCP-FLAG G233LXXXG237L (TMD7) mutant (human) (UniProt Q14973).
T6 sequence: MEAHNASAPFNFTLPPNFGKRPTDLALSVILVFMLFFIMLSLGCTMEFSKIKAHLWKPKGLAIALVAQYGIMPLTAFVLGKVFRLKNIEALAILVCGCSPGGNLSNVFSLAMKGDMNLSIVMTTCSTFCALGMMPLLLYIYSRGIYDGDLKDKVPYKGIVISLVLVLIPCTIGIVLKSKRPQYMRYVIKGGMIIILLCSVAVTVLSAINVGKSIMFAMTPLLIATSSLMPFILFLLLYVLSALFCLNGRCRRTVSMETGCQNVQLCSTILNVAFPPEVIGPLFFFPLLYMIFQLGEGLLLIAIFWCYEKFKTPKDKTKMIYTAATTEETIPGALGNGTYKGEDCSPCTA
The assay is described as above.

For “HBV/HDV-derived preS1 2-48 peptide labelled with AlexaFluor568 (from UniProt P03138 2-48)”, the binding result in assay [1] and in assay [2] was “binds” in each case.

B1: Na+/taurocholate co-transporting polypeptide (NTCP), wild type, MYTH bait and prey fusions (protein, UniProt Q14973 1-349)
chain: MEAHNASAPFNFTLPPNFGKRPTDLALSVILVFMLFFIMLSLGCTMEFSKIKAHLWKPKGLAIALVAQYGIMPLTAFVLGKVFRLKNIEALAILVCGCSPGGNLSNVFSLAMKGDMNLSIVMTTCSTFCALGMMPLLLYIYSRGIYDGDLKDKVPYKGIVISLVLVLIPCTIGIVLKSKRPQYMRYVIKGGMIIILLCSVAVTVLSAINVGKSIMFAMTPLLIATSSLMPFIGFLLGYVLSALFCLNGRCRRTVSMETGCQNVQLCSTILNVAFPPEVIGPLFFFPLLYMIFQLGEGLLLIAIFWCYEKFKTPKDKTKMIYTAATTEETIPGALGNGTYKGEDCSPCTA
Take B1: in assay [3], the binding result is listed as “binds”.

B2: NTCP G233LXXXG237L (TMD7) mutant, MYTH prey fusion (protein, UniProt Q14973 1-349)
chain: MEAHNASAPFNFTLPPNFGKRPTDLALSVILVFMLFFIMLSLGCTMEFSKIKAHLWKPKGLAIALVAQYGIMPLTAFVLGKVFRLKNIEALAILVCGCSPGGNLSNVFSLAMKGDMNLSIVMTTCSTFCALGMMPLLLYIYSRGIYDGDLKDKVPYKGIVISLVLVLIPCTIGIVLKSKRPQYMRYVIKGGMIIILLCSVAVTVLSAINVGKSIMFAMTPLLIATSSLMPFILFLLLYVLSALFCLNGRCRRTVSMETGCQNVQLCSTILNVAFPPEVIGPLFFFPLLYMIFQLGEGLLLIAIFWCYEKFKTPKDKTKMIYTAATTEETIPGALGNGTYKGEDCSPCTA
On to B2, for which the binding entry in assay [3] is given as “binds”.

B3: NTCP G60LXXXA64L (TMD2) mutant, MYTH prey fusion (protein, UniProt Q14973 1-349)
chain: MEAHNASAPFNFTLPPNFGKRPTDLALSVILVFMLFFIMLSLGCTMEFSKIKAHLWKPKLLAILLVAQYGIMPLTAFVLGKVFRLKNIEALAILVCGCSPGGNLSNVFSLAMKGDMNLSIVMTTCSTFCALGMMPLLLYIYSRGIYDGDLKDKVPYKGIVISLVLVLIPCTIGIVLKSKRPQYMRYVIKGGMIIILLCSVAVTVLSAINVGKSIMFAMTPLLIATSSLMPFIGFLLGYVLSALFCLNGRCRRTVSMETGCQNVQLCSTILNVAFPPEVIGPLFFFPLLYMIFQLGEGLLLIAIFWCYEKFKTPKDKTKMIYTAATTEETIPGALGNGTYKGEDCSPCTA
Regarding B3, the binding entry in assay [3] is reported as “binds”.

B4: NTCP G60LXXXA64L/G233LXXXG237L (TMD2/7) double mutant, MYTH prey fusion (protein, UniProt Q14973 1-349)
chain: MEAHNASAPFNFTLPPNFGKRPTDLALSVILVFMLFFIMLSLGCTMEFSKIKAHLWKPKLLAILLVAQYGIMPLTAFVLGKVFRLKNIEALAILVCGCSPGGNLSNVFSLAMKGDMNLSIVMTTCSTFCALGMMPLLLYIYSRGIYDGDLKDKVPYKGIVISLVLVLIPCTIGIVLKSKRPQYMRYVIKGGMIIILLCSVAVTVLSAINVGKSIMFAMTPLLIATSSLMPFILFLLLYVLSALFCLNGRCRRTVSMETGCQNVQLCSTILNVAFPPEVIGPLFFFPLLYMIFQLGEGLLLIAIFWCYEKFKTPKDKTKMIYTAATTEETIPGALGNGTYKGEDCSPCTA
B4: the binding entry in assay [3] is “binds”.

B5: NTCP wild type, NTCP-FLAG and NTCP-V5-His expressed in HEK293 cells (protein, UniProt Q14973 1-349)
chain: MEAHNASAPFNFTLPPNFGKRPTDLALSVILVFMLFFIMLSLGCTMEFSKIKAHLWKPKGLAIALVAQYGIMPLTAFVLGKVFRLKNIEALAILVCGCSPGGNLSNVFSLAMKGDMNLSIVMTTCSTFCALGMMPLLLYIYSRGIYDGDLKDKVPYKGIVISLVLVLIPCTIGIVLKSKRPQYMRYVIKGGMIIILLCSVAVTVLSAINVGKSIMFAMTPLLIATSSLMPFIGFLLGYVLSALFCLNGRCRRTVSMETGCQNVQLCSTILNVAFPPEVIGPLFFFPLLYMIFQLGEGLLLIAIFWCYEKFKTPKDKTKMIYTAATTEETIPGALGNGTYKGEDCSPCTA
Take B5: the binding result in assay [4], in assay [5], in assay [6] and in assay [7] was “binds” each time.
